# Record: PubChem BioAssay AID652259 (Drosophila RNAi Screening Center, 2013)
# Assay: 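Knock-downs that push a Wingless-driven reporter up or down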 (primary screen)
# System: Drosophila clone 8 imaginal disc epithelial cells
# Reagents: long dsRNA against Drosophila genes
# Challenge: pathway stimulated by co-transfected Wingless expression plasmid
# Measured: 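Firefly luciferase from a tcf-site Wingless reporter, measured alongside co-transfected Renilla luciferase that tracks transfection; pathway stimulated by a Wingless plasmid; the firefly-to-Renilla ratio is not deposited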
# Reading the numbers: firefly reporter light: higher = more Wg reporter light, before normalisation; Renilla control light: higher = more transfected or surviving cells
# Rule for the call: 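Strong candidates differ from their plate mean by at least two out of four per-plate statistical tests; weak candidates meet just one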
# Calls: active = candidate regulator (raises or lowers reporter); inactive = not a candidate
# In all, the deposit lists about 22,000 reagents; shown is an unselected part of those that have a named target and a result. Over the whole deposit, 233 (1.1%) are marked active. 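Light values are raw, unnormalised plate reads; the ratio scores behind the reporter calls were not deposited.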 Entries without a mark were called inactive. A plus sign joins genes that one reagent is predicted to hit. Reagent sequences are not shown. Not given: the amount of reagent, the time to read-out, the dose of the treatment.
Gene,PubChem SID,"firefly reporter light, replicate 1","firefly reporter light, replicate 2","Renilla control light, replicate 1","Renilla control light, replicate 2"
Gnpat,SID104196752,22009,,17349,
Teh3,SID104188329,5288,,2642,
Egfr,SID104183663,17779,,10391,
Egfr,SID104184405,8816,,3084,
CG42570,SID104189183,2224,,870,
bsd,SID104185745,5781,,1000,
Rph,SID104197582,15913,,7408,
CG34150,SID104193481,6112,,2036,
RpLP1,SID104180575,2192,7850,848,3037
RpLP1,SID104201696,4.14e5,4.35e5,1.07e5,1.28e5
primo-2 + primo-1,SID104196303,21680,,5187,
CG14260,SID104194547,3837,,2688,
Atg10,SID104185964,4851,8201,101,3201
asRNA:CR31845,SID104201781,6.23e5,6.78e5,1.37e5,1.43e5
Tsen34,SID104202289,6.79e5,5.86e5,2.85e5,2.79e5
CG7992,SID104199862,19025,,7821,
CG4586,SID104198165,3408,8611,1106,2470
side-VII,SID104194370,8133,,3657,
CG5516,SID104195618,19661,,4569,
CG5516,SID104201422,6.26e5,6.06e5,1.84e5,1.78e5
Dbx,SID104188062,8468,,2125,
Dbx,SID104188063,5856,,2643,
Dbx,SID104188186,6296,,2491,
Adat1,SID104183271,1973,7590,999,2836
CG10428,SID104181846,10093,,2816,
Slu7,SID104194521,6610,,2171,
ND-51L2,SID104186872,6810,,2004,
CG33307,SID104181141,24005,,10664,
Mal-A6,SID104187025,2596,7344,875,3017

3 of these entries, set out differently.
Gene	PubChem SID	firefly reporter light, replicate 1	firefly reporter light, replicate 2	Renilla control light, replicate 1	Renilla control light, replicate 2
Egfr	SID104184405	8816		3084	
CG42570	SID104189183	2224		870	
bsd	SID104185745	5781		1000	
